## Cell number after 72 h of treatment

From a melanoma drug combination screen (doi:10.1371/journal.pone.0140310); values rounded.

Drug key:
nilutamide: CC1(C)NC(=O)N(c2ccc([N+](=O)[O-])c(C(F)(F)F)c2)C1=O at 5000 nM
darinaparsin: C[As](C)SC[C@H](NC(=O)CC[C@H](N)C(=O)O)C(=O)NCC(=O)O at 2000 nM
Src-I1: COc1cc2ncnc(Nc3ccc(Oc4ccccc4)cc3)c2cc1OC at 10000 nM
ruxolitinib: N#CC[C@H](C1CCCC1)n1cc(-c2ncnc3[nH]ccc23)cn1 at 5000 nM
GW2580: COc1ccc(COc2ccc(Cc3cnc(N)nc3N)cc2OC)cc1 at 5000 nM
sunitinib: CCN(CC)CCNC(=O)c1c(C)[nH]c(/C=C2\C(=O)Nc3ccc(F)cc32)c1C at 2000 nM
ENMD-2076: Cc1cc(Nc2cc(N3CCN(C)CC3)nc(/C=C/c3ccccc3)n2)n[nH]1 at 200 nM
gemcitabine: Nc1ccn([C@@H]2O[C@H](CO)[C@@H](O)C2(F)F)c(=O)n1 at 2 nM
decitabine: Nc1ncn([C@H]2C[C@H](O)[C@@H](CO)O2)c(=O)n1 at 500 nM
GSK0660: COC(=O)c1sccc1S(=O)(=O)Nc1ccc(Nc2ccccc2)cc1OC at 5000 nM
tanespimycin: C=CCNC1=C2C[C@@H](C)C[C@H](OC)[C@H](O)[C@@H](C)/C=C(\C)[C@H](OC(N)=O)[C@@H](OC)/C=C\C=C(/C)C(=O)NC(=CC1=O)C2=O at 10 nM
midostaurin: CO[C@@H]1[C@H](N(C)C(=O)c2ccccc2)C[C@H]2O[C@]1(C)n1c3ccccc3c3c4c(c5c6ccccc6n2c5c31)C(=O)NC4 at 400 nM
GW0742: Cc1cc(SCc2sc(-c3ccc(C(F)(F)F)c(F)c3)nc2C)ccc1OCC(=O)O at 10000 nM
OSU-03012: NCC(=O)Nc1ccc(-n2nc(C(F)(F)F)cc2-c2ccc3c(ccc4ccccc43)c2)cc1 at 5000 nM
bortezomib: CC(C)C[C@H](NC(=O)[C@H](Cc1ccccc1)NC(=O)c1cnccn1)B(O)O at 5 nM
OSI-906: C[C@]1(O)C[C@@H](c2nc(-c3ccc4ccc(-c5ccccc5)nc4c3)c3c(N)nccn32)C1 at 2000 nM
temozolomide: Cn1nnc2c(C(N)=O)ncn2c1=O at 10000 nM
tamatinib: COc1cc(Nc2ncc(F)c(Nc3ccc4c(n3)NC(=O)C(C)(C)O4)n2)cc(OC)c1OC at 2000 nM

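Human melanoma cells were exposed to a pair of drugs for 72 h in 1,536-well plates and read by automated microscopy after fixing and staining. Each value is the count of nuclei relative to DMSO-treated wells, in %, so that 100 equals the control. Every drug was used at one fixed concentration, the higher of two screened. The file gives one value for each pair and line, without errors, so small differences may be noise.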
An unselected part of the screen is shown.

- gemcitabine + decitabine : COLO 800: 28.5; C32: 77.8; COLO 792: 42.1; COLO 829: 26.8; WM451Lu: 46.9; WM3619: 48.1
- gemcitabine + GW0742 : COLO 800: 29.4; C32: 89.5; COLO 792: 63.8; COLO 829: 56.6; WM451Lu: 43.3; WM3619: 35.7
- temozolomide + ruxolitinib : COLO 800: 79.6; C32: 101; COLO 792: 91.4; COLO 829: 94.2; WM451Lu: 122; WM3619: 92.2
- GSK0660 + darinaparsin : COLO 800: 39.2; C32: 91.0; COLO 792: 82.6; COLO 829: 63.5; WM451Lu: 54.6; WM3619: 53.4
- temozolomide + GW2580 : COLO 800: 77.5; C32: 103; COLO 792: 85.0; COLO 829: 72.7; WM451Lu: 71.6; WM3619: 74.6
- GW0742 + Src-I1 : COLO 800: 93.0; C32: 75.9; COLO 792: 70.1; COLO 829: 130; WM451Lu: 90.1; WM3619: 69.2
- gemcitabine + GSK0660 : COLO 800: 31.5; C32: 81.0; COLO 792: 92.0; COLO 829: 49.1; WM451Lu: 55.0; WM3619: 40.0
- OSU-03012 + Src-I1 : COLO 800: 45.1; C32: 21.2; COLO 792: 39.0; COLO 829: 76.1; WM451Lu: 36.3; WM3619: 8.1
- OSI-906 + GW2580 : COLO 800: 57.5; C32: 117; COLO 792: 86.9; COLO 829: 107; WM451Lu: 89.4; WM3619: 83.8
- sunitinib + GW2580 : COLO 800: 42.2; C32: 83.5; COLO 792: 57.0; COLO 829: 85.1; WM451Lu: 60.7; WM3619: 34.9
- OSI-906 + tanespimycin : COLO 800: 48.9; C32: 18.4; COLO 792: 84.5; COLO 829: 92.5; WM451Lu: 65.8; WM3619: 62.0
- darinaparsin + tamatinib : COLO 800: 55.2; C32: 81.2; COLO 792: 49.8; COLO 829: 87.3; WM451Lu: 58.1; WM3619: 73.2
- nilutamide + GW0742 : COLO 800: 71.6; C32: 97.9; COLO 792: 96.3; COLO 829: 88.1; WM451Lu: 87.9; WM3619: 84.3
- ENMD-2076 + sunitinib : COLO 800: 65.2; C32: 77.5; COLO 792: 63.9; COLO 829: 103; WM451Lu: 54.6; WM3619: 80.9
- GW2580 + ruxolitinib : COLO 800: 169; C32: 108; COLO 792: 117; COLO 829: 109; WM451Lu: 106; WM3619: 107
- midostaurin + tanespimycin : COLO 800: 53.2; C32: 9.9; COLO 792: 55.2; COLO 829: 81.7; WM451Lu: 56.7; WM3619: 63.9
- tanespimycin + GSK0660 : COLO 800: 103; C32: 9.9; COLO 792: 101; COLO 829: 107; WM451Lu: 96.7; WM3619: 51.5
- bortezomib + gemcitabine : COLO 800: 64.4; C32: 26.9; COLO 792: 32.9; COLO 829: 10.3; WM451Lu: 28.0; WM3619: 4.0
- bortezomib + Src-I1 : COLO 800: 76.1; C32: 33.1; COLO 792: 37.9; COLO 829: 17.1; WM451Lu: 22.2; WM3619: 14.7

Some entries from above, unchanged:

{"combination": "ENMD-2076 + sunitinib", "COLO 800": 65.2, "C32": 77.5, "COLO 792": 63.9, "COLO 829": 103, "WM451Lu": 54.6, "WM3619": 80.9}
{"combination": "gemcitabine + GSK0660", "COLO 800": 31.5, "C32": 81.0, "COLO 792": 92.0, "COLO 829": 49.1, "WM451Lu": 55.0, "WM3619": 40.0}